This assay deals with L1210 leukemia ip in BDF1 mice, survival T/C. Put plainly: NCI In Vivo Anticancer Drug Screen. Data for tumor model L1210 Leukemia (intraperitoneal) in B6D2F1 (BDF1) mice. The settings on record: T/C endpoint: mean survival time, higher T/C = longer survival.
Setting [1] is: dose: 100.0 mg/kg/injection, schedule: Q01DX001 (ip), vehicle: saline.
The mark [2] stands for this setting: dose: 200.0 mg/kg/injection, schedule: Q01DX001 (ip), vehicle: saline.
The mark [3] stands for this setting: dose: 400.0 mg/kg/injection, schedule: Q01DX001 (ip), vehicle: saline.
Where [4] appears, read: dose: 200.0 mg/kg/injection, schedule: Q04DX002 (ip), vehicle: Klucel (hydroxypropylcellulose) (HPC).
Where [5] appears, read: dose: 400.0 mg/kg/injection, schedule: Q04DX002 (ip), vehicle: Klucel (hydroxypropylcellulose) (HPC).
Setting [6] is: dose: 400.0 mg/kg/injection, schedule: Q01DX009 (ip), vehicle: Klucel (hydroxypropylcellulose) (HPC).
The mark [7] stands for this setting: dose: 400.0 mg/kg/injection, schedule: Q04DX003 (ip), vehicle: Klucel (hydroxypropylcellulose) (HPC).
Where [8] appears, read: dose: 400.0 mg/kg/injection, schedule: Q04DX003 (ip), vehicle: saline.
[9] abbreviates: dose: 100.0 mg/kg/injection, schedule: Q01DX009 (ip), vehicle: saline.
Setting [10] is: dose: 300.0 mg/kg/injection, schedule: Q01DX001 (ip), vehicle: saline.

The list shows only some results of the screen, not a fair sample: it gathers tests that were run many times, whatever their T/C, doses with no T/C, and many T/C values between a quarter and a half above the control. Further doses and runs are listed elsewhere. T/C: endpoint of the treated group in % of that of the vehicle group. Some entries give survivors of the animals treated and no T/C: the source files T/C as zero there, which appears to mark a toxic dose or a test without result, not a measured value. Some doses without a T/C left all or most animals alive at the check, yet need not have been tolerated: the source hardly ever lists a survival T/C far under the control, and the zero likely stands for such cases as well. Counts of survivors are from the toxicity check (mostly the fifth day) where no day follows; animals may have died later. Schedule codes are those of the source, read here as Q, the interval in days (D) or hours (H), X, the number of doses. Some entries were tested several times; the values are given in rising order. For survival time, the PubChem record calls one and a half times the control and up active, and a quarter to a half above the control has no call in these data; cut-offs in other NCI protocols can differ.

`C[N+](C)(C)CCCBr`: the survivor count is 1 of 4 (dose: 5.0 mg/kg/injection, schedule: Q01DX001 (ip), vehicle: saline); 0 of 4 (dose: 40.0 mg/kg/injection, schedule: Q01DX001 (ip), vehicle: saline); 0 of 4 (dose: 80.0 mg/kg/injection, schedule: Q01DX001 (ip), vehicle: saline); 0 of 4 under setting [1]; 0 of 4 under setting [2]; 0 of 4 under setting [3].
Consider `CCC(=O)OC1CCC2(C)C(=CCC3C2CCC2(C)C(C(C)CCCC(C)C)CCC32)C1` (stereo not drawn), for which the survivor count (dose: 400.0 mg/kg/injection, schedule: Q01DX001 (ip), vehicle: other) is 3 of 3.
As for `Oc1ccc(O)c2[nH]c(-c3ccc(Cl)cc3)cc12`, the survivor count reads like this: (dose: 100.0 mg/kg/injection, schedule: Q04DX002 (ip), vehicle: Klucel (hydroxypropylcellulose) (HPC)) 0 of 3; under setting [4], 0 of 3; under setting [5], 0 of 3.
Turning to `CCOC(=O)Nc1ccc(NC(=O)OCC)cc1`, under setting [6], the survivor count was 6 of 6.
As to `O=C(/C=C\c1ccccc1)N1CCc2ccccc2C1`, the survivor count (dose: 150.0 mg/kg/injection, schedule: Q04DX003 (ip), vehicle: saline) was 6 of 6.
In the case of `CCCCCCCCC(C)NCCOC(=O)c1ccc([N+](=O)[O-])cc1` (stereo not drawn), where the note is “dose: 300.0 mg/kg/injection, schedule: Q01DX001 (ip), vehicle: other”, the survivor count is 1 of 6.
For `CCCCCN1CCCC(OC(=O)N(C)C)C1` (stereo not drawn), the survivor count by setting is: (dose: 100.0 mg/kg/injection, schedule: Q04DX002 (ip), vehicle: saline) 1 of 3; (dose: 200.0 mg/kg/injection, schedule: Q04DX002 (ip), vehicle: saline) 1 of 3; (dose: 400.0 mg/kg/injection, schedule: Q04DX002 (ip), vehicle: saline) 0 of 3.
As for `CC(=O)Oc1cccc(N(C)C)c1`, the survivor count by setting is: (dose: 200.0 mg/kg/injection, schedule: Q01DX001 (ip), vehicle: acetone) 3 of 6; (dose: 400.0 mg/kg/injection, schedule: Q01DX001 (ip), vehicle: acetone) 0 of 6.
Consider `CNC(=O)Oc1ccc(NC(=O)OC)cc1`, for which, where the note is “dose: 400.0 mg/kg/injection, schedule: Q04DX003 (ip), vehicle: saline with Tween-80”, the survivor count is recorded as 6 of 6.
Take `O=[N+]([O-])c1ccc(O)cc1`: the survivor count runs as follows: (dose: 100.0 mg/kg/injection, schedule: Q04DX003 (ip), vehicle: other) 6 of 6; (dose: 200.0 mg/kg/injection, schedule: Q04DX003 (ip), vehicle: other) 0 of 6; under setting [3], 0 of 4; (dose: 400.0 mg/kg/injection, schedule: Q04DX002 (ip), vehicle: saline with Tween-80) 0 of 3; (dose: 400.0 mg/kg/injection, schedule: Q04DX003 (ip), vehicle: other) 0 of 6.
For `CC(C)(C)c1ccc(OC(=O)Nc2ccc(O)c(C(=O)O)c2)cc1`, the survivor count by setting is: (dose: 200.0 mg/kg/injection, schedule: Q01DX001 (ip), vehicle: Klucel (hydroxypropylcellulose) (HPC)) 1 of 6; (dose: 200.0 mg/kg/injection, schedule: Q01DX009 (ip), vehicle: Klucel (hydroxypropylcellulose) (HPC)) 5 of 6; (dose: 400.0 mg/kg/injection, schedule: Q01DX001 (ip), vehicle: Klucel (hydroxypropylcellulose) (HPC)) 0 of 6; under setting [6], 0 of 3 and 0 of 6; under setting [5], 0 of 3 and 2 of 6; under setting [7], 0 of 6.
In the case of `CN(C)CCN=C(Nc1ccccn1)Nc1ccccn1`, the survivor count is, setting by setting: under setting [2], 1 of 6; under setting [3], 0 of 6.
On to `S=C1N(C2CCCCC2)CCN1C1CCCCC1`, for which the survivor count by setting is: under setting [4], 3 of 3; under setting [5], 3 of 3.
For `[Cl][Pt+2][Cl].[NH-]c1ccc([N+](=O)[O-])cc1.[NH-]c1ccc([N+](=O)[O-])cc1`, under setting [8], the survivor count was 1 of 3.
As to `CC1(C)OC2C(CO)OC(n3cnc4c(N)ncnc43)C2O1` (stereo not drawn), the survivor count under setting [7] is reported as 5 of 6.
As for `ClC(Cl)=[C](Cl)[Hg][C](Cl)=C(Cl)Cl`, the survivor count is recorded as 5 of 6 (dose: 3.13 mg/kg/injection, schedule: Q01DX009 (ip), vehicle: saline with Tween-80) and 4 of 6 (dose: 6.25 mg/kg/injection, schedule: Q01DX009 (ip), vehicle: saline with Tween-80).
With `CN(C)CCOC(c1ccccc1)c1ccccc1`, the survivor count is reported as 2 of 6 under setting [9]; 4 of 4 (dose: 100.0 mg/kg/injection, schedule: Q04DX003 (ip), vehicle: saline); 0 of 6 (dose: 200.0 mg/kg/injection, schedule: Q01DX009 (ip), vehicle: saline); 2 of 4 (dose: 200.0 mg/kg/injection, schedule: Q04DX003 (ip), vehicle: saline); 0 of 6 (dose: 400.0 mg/kg/injection, schedule: Q01DX009 (ip), vehicle: saline); 0 of 4 under setting [8].
Consider `COc1ccc2c(c1OC(C)=O)-c1cc(OC(C)=O)cc3c1C(C2)N(C)CC3` (stereo not drawn), for which the survivor count reads like this: (dose: 200.0 mg/kg/injection, schedule: Q04DX003 (ip), vehicle: DMSO) 5 of 5; (dose: 400.0 mg/kg/injection, schedule: Q04DX003 (ip), vehicle: DMSO) 4 of 5.
As to `Cc1c(Cl)cccc1NC(=S)NC(=O)/C=C/c1ccccc1`, the survivor count is, setting by setting: (dose: 200.0 mg/kg/injection, schedule: Q01DX001 (ip), vehicle: saline with Tween-80) 6 of 6; (dose: 200.0 mg/kg/injection, schedule: Q04DX003 (ip), vehicle: saline with Tween-80) 6 of 6.
Regarding `Nc1ccccc1SC(CC(=O)c1ccccc1)c1cccc([N+](=O)[O-])c1` (stereo not drawn), the survivor count was 3 of 3 (dose: 130.0 mg/kg/injection, schedule: Q01DX009 (ip), vehicle: Klucel (hydroxypropylcellulose) (HPC)) and 3 of 3 (dose: 300.0 mg/kg/injection, schedule: Q01DX009 (ip), vehicle: Klucel (hydroxypropylcellulose) (HPC)).
Consider `CCNCCn1cccc1`, for which, under setting [8], the survivor count is 1 of 6.
`CCOC(=O)C(C(=O)OCC)C1c2ccccc2C(=NO)c2ccccc21` (stereo not drawn): under setting [7], the survivor count is on record as 6 of 6.
Consider `CCN(CC)CCCC(C)Nc1cc(N)nc2nc(-c3ccccc3)cnc12` (stereo not drawn) (tested in a mixture with another compound), for which the survivor count (dose: 150.0 mg/kg/injection, schedule: Q01DX001 (ip), vehicle: saline) is 4 of 6; the survivor count under setting [10] is 0 of 6 and 1 of 6.
Regarding `COC1OC(CO)C(O)C(O)C1O` (stereo not drawn), under setting [1], the T/C was 130 % of control.
For `Br/C=C(\Br)CBr`, the survivor count (dose: 300.0 mg/kg/injection, schedule: Q01DX001 (sc), vehicle: olive oil, sesame oil, peanut oil) is recorded as 0 of 6.
For the molecule `ClCC[n+]1ccccc1`, the survivor count under setting [10] is given as 0 of 6.
For the molecule `COc1ccc(C(SCC(N)C(=O)O)(c2ccccc2)c2ccc(OC)cc2)cc1` (stereo not drawn), the T/C is 135 and 136 % of control (dose: 12.5 mg/kg/injection, schedule: Q01DX009 (ip), vehicle: saline); 127 % of control (dose: 25.0 mg/kg/injection, schedule: Q01DX009 (ip), vehicle: other); 149 % of control (dose: 25.0 mg/kg/injection, schedule: Q01DX009 (ip), vehicle: saline). The survivor count reads like this: (dose: 50.0 mg/kg/injection, schedule: Q01DX009 (ip), vehicle: other) 6 of 6; (dose: 100.0 mg/kg/injection, schedule: Q01DX009 (ip), vehicle: other) 0 of 6; under setting [9], 0 of 6.

The record behind these values is PubChem BioAssay AID248 (DTP/NCI, 2004).
